doi:10.1101/2021.09.14.460262 (bioRxiv, 2021)
These are yes or no findings as the source states them, for the method shown. For some of these results: Binding can be weak; no strength is given. For some of these results: Binding seen in cells or lysates may run through a third protein. Each block holds one substance with its values, some of them ahead of it.

Protein sequences, listed by entry. Tags and fused reporters are not part of them. Lines headed by an entry give the natural chain unless they say otherwise; changes in a name come on top.
UniProt P70444: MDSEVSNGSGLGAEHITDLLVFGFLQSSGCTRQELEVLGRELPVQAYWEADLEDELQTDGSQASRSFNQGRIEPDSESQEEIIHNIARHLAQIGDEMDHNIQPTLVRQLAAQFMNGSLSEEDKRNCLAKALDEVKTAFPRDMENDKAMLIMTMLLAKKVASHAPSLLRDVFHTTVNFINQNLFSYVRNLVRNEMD
UniProt Q60932: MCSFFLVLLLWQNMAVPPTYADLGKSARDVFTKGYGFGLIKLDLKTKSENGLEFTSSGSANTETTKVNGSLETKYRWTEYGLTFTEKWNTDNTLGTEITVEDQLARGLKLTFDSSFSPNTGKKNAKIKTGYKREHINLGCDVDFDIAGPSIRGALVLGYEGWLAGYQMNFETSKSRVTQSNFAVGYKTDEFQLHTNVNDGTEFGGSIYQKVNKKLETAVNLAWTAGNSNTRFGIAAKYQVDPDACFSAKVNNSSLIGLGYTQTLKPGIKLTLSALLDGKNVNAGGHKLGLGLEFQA

Key:
[1] = target: BID, endogenous (mouse (endogenous in HT-22 cells, primary mouse cortical neurons and mouse brain)) (UniProt P70444); experiment: co-IP
[2] = target: recombinant full length His6-BID (UniProt P70444); experiment: pull-down
FLAG-tagged VDAC1 = FLAG-tagged VDAC1 (UniProt Q60932); experiment: co-IP
[3] = target: VDAC1, endogenous (mouse (endogenous in HT-22 cells, primary mouse cortical neurons and mouse brain)) (UniProt Q60932); experiment: co-IP
[4] = target: VDAC1, endogenous (mouse (endogenous in HT-22 cells, primary mouse cortical neurons and mouse brain)) (UniProt Q60932); experiment: co-IP; remark: listed apart in the source
[5] = target: VDAC1, endogenous (mouse (endogenous in HT-22 cells, primary mouse cortical neurons and mouse brain)) (UniProt Q60932); experiment: condition: only control tissue or ischemic cortex 2 hours after MCAO
[6] = target: VDAC1, endogenous (mouse (endogenous in HT-22 cells, primary mouse cortical neurons and mouse brain)) (UniProt Q60932); experiment: co-IP; remark: listed apart in the source

binding [1]: binds
Substance: VDAC1, endogenous (from UniProt Q60932)

binding [2]: binds
Substance: recombinant mVDAC1 (voltage-dependent anion channel 1) (from UniProt Q60932)

binding (FLAG-tagged VDAC1): binds | binding [3]: binds | binding [4]: binds | binding [5]: no binding | binding [6]: binds
Substance: BID, endogenous (from UniProt P70444 1-195)
